Results are given in words; binding and its absence hold for the method and conditions named. A result given as binding can be weak or reduced; the word gives no strength.
Experiments:
Experiment in all cases: epitope mapping with GST-tagged hGal1 fragments
[1] = target: GST-F7 (GST-tagged human Gal1 fragment F7)
[2] = target: GST-F6 (GST-tagged human Gal1 fragment F6)
[3] = target: GST-F5 (GST-tagged human Gal1 fragment F5)

- binding [1]: binds
- binding [2]: binds
- binding [3]: binds
B1: anti-Gal1 monoclonal antibody 8F4F8G7 (antibody, V domains shown)
VH: EVQLQQSVAEFVRPGASVRLSCTASGFNIKNTYIHWVRQRPEQGLEWIGKIDPANGNTKYVPEFQGKATMTADTSSNTVYLHLSSLTSEDTAIYYCVDGYYGWYFAVWGTGTTVTVSS
VL: QAVVTQESALTTSPGETVTLTCRSSTGAVTTSNYANWVQEKPDHLFTGLIGATNNRAPGVPARFSGSLIGDKAVLTITGAQTEDEAIYFCALWYRNHFIFGSGTKVTVL

— US10456465
